Measurements published in patent US20150232572A1.
These are yes or no findings as the source states them, for the method shown. Some binding calls cover weakened binding; strength is not graded here.

Tests used:
[1] = biological target: recombinant MT4-MMP inactive mutated form (E249A) (Homo sapiens (Human)) (UniProt Q9ULZ9); assay: ELISA (FIG. 14 C)
[2] = biological target: recombinant wild-type MT4-MMP (Homo sapiens (Human)) (UniProt Q9ULZ9); assay: ELISA (FIG. 14 C)
[3] = biological target: recombinant MT4-MMP inactive mutated form (E249A) (Homo sapiens (Human)) (UniProt Q9ULZ9); assay: ELISA, 3 µg recombinant protein
[4] = biological target: recombinant wild-type MT4-MMP (Homo sapiens (Human)) (UniProt Q9ULZ9); assay: ELISA, 3 µg recombinant protein
[5] = biological target: recombinant MT4-MMP inactive mutated form (E249A) (Homo sapiens (Human)) (UniProt Q9ULZ9); assay: Western blot, scFv detected by anti-myc
[6] = biological target: recombinant wild-type MT4-MMP (Homo sapiens (Human)) (UniProt Q9ULZ9); assay: Western blot, scFv detected by anti-myc
[7] = biological target: T1, recombinant catalytic domain of MT4-MMP (MT4-CAT) (Homo sapiens (Human)) (UniProt Q9ULZ9); assay: ELISA on immobilized MT4-CAT (FIG. 14 B)
T1 sequence: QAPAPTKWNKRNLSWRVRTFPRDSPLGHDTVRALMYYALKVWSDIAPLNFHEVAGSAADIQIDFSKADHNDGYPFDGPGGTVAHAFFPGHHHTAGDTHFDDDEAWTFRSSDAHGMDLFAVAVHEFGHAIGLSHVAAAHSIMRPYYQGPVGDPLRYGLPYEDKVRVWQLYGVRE

[8] = biological target: T1, recombinant catalytic domain of MT4-MMP (MT4-CAT) (Homo sapiens (Human)); assay: ELISA, 0-3 µg MT4-CAT immobilized per well, anti-myc detection, A450
[9] = biological target: recombinant wild-type MT4-MMP (Homo sapiens (Human)) (UniProt Q9ULZ9); assay: phage display selection and screening; assay not specified
[10] = biological target: T1, recombinant catalytic domain of MT4-MMP (MT4-CAT) (Homo sapiens (Human)); assay: ELISA on different concentrations of recombinant MT4-MMP coated in 96 well plates (MT4-CAT per paragraph 200)

Measured: binding

B1: K4H7 scFv antibody (scFv)
scFv: QVQLVQSGGGLVKPGRSLRLSCTASGFTFGDYAMSWFRQAPGKGLEWVGFIRSKAYGGTTEYAASVKGRFTISRDDSKSIAYLQMNSLKTEDTAVYYCTRGSSGWFLNWFDPWGQGTLVTVSSLEGGGGSGGGGSGGGGSELETTLTQSPATLSLSPGERATLSCRASQSISSSYLAWYQHKPGQAPRLLIYGASRRATGIPDRFSGSGSGTDFSLTISRLEPEDFAVYYCLHYGSSKWTFGQGTKVEIKR
binds: all assays above
